Measurements: article PMC4743000
No constants are given. Whether binding was seen depends on the method and setting. Binding seen in cells or lysates may run through a third protein. Binding can be weak; no strength is given.

Target: CDC-48 (C. elegans (endogenous in whole-worm lysate))
Experiment: co-IP; C. elegans-specific antibodies crosslinked (BS3) to Dynabeads Protein A, incubated with wt whole-worm lysate (1 mg total protein) 30 min at room temperature; wash 50 mM Tris pH 7.2, 1 mM EDTA, 150 mM NaCl, 10% glycerol; western blot

B1: UBXN-3 (ubiquitin regulatory X (UBX) domain-containing protein in nematodes 3) (protein, UniProt H2L056 1-613)
chain: MDLTASLEDDQREKLRQYTEFTHQQDYEVAIGTLASLNWNLEQAIEAHLMQEDKNDDEDPEILETIPAAASGRNAGASSSSRFEPEVINIEDDEMPATRGRRRGRAVTPDETTTVDNQVKRLRIDDGSSSSSNGAATHHRGAAIPRQKRGQATEPTPSSSGSSSASFSSRRGTRANPVPPPNQEPAHPESARQNGGILASRHNNHNNQQNNHHHHHQRIPINPRRVDVFNVDSDEDDDSMAIAYEDDDDGVHEVHHSEVVARGSGPPNGRIPMIPDGFSSVSDALRNFVAIFSDRFCSTPQTQAFMPPFYTEPLPAAVKEAFDHPNSEHRRPLLFYINHDRSIAANIFASQVLCSETVSTLIRHQYVLFPWDITSDSNLMLFLEYLQAANMGDVRTIIQRLAMSKIESFPLMAIVVKERNSYRLVDYCRGTDTSDQVMEKLLSGVSEYSDIRMNEQSERREREEREAIRNQQEAEYKASLAADKARMEAKQQEIEEQRLEEERKLREEEEECVRRQTVASTVPEEPPASAPLAEIINVKFRLPEGGQDMRRFRRLESIQTLINYLSSKGYSPDKFKYFNSDFPKKEITRHFDLSHNFADTKWPAREQIFVEEI
binding: binds
